# Measured values: the supplement of paper PMC8728848
# The list shows a part of the results.
# B1: SUN4 (Saccharomyces cerevisiae), P53616 (protein)
# chain: MGSSHHHHHHSSGLVPRGSHNGSIYGDLADFSGPYEKFEDGTIPCGQFPSGQGVIPISWLDEGGWSGVENTDTSTGGSCKEGSYCSYACQPGMSKTQWPSDQPSDGRSIGGLLCKDGYLYRSNTDTDYLCEWGVDAAYVVSELSNDVAICRTDYPGTENMVIPTYVQAGDSLPLTVVDQDTYYTWQGLKTSAAYYVNNAGISVEDACVWGSSSSGVGNWAPLNFGAGSSDGVAYLSLIPNPNNGNALNFNVKIVAADDSSTVNGECIYENGSFSGGSDGCTVSVTAGKAKFVLYN
# How the values were obtained:
# Assay in all cases: glycan array binding signal (z-score within array); higher = stronger binding
# Conditions in all cases: glycan notation: IUPAC condensed, linker removed; mutation: Q318A
# [1] = biological target: GlcNAc(a1-6)Gal(b1-4)GlcNAc
# Procedure, shortened: (§1)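 Glycan array binding is given as a within-array Z-score, which can be read as non-binding when negative. The arrays, 3228 of them, came from the Consortium for Functional Glycomics database and were retained only where the protein sequence was available. Z-scores were averaged across arrays of the same protein sequence at different concentrations or buffers and across linkers.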
# [2] = biological target: GlcNAc(b1-2)Gal(b1-3)GalNAc
# Procedure, shortened: as §1
# [3] = biological target: GlcNAc(b1-2)Man(a1-3)[GlcNAc(b1-2)Man(a1-6)]Man(b1-4)GlcNAc(b1-4)GlcNAc
# Procedure, shortened: as §1
# [4] = biological target: GlcNAc(b1-2)Man(a1-3)[GlcNAc(b1-2)Man(a1-6)]Man(b1-4)GlcNAc(b1-4)[Fuc(a1-6)]GlcNAc
# Procedure, shortened: as §1
# [5] = biological target: GlcNAc(b1-2)Man(a1-3)[GlcNAc(b1-4)][GlcNAc(b1-2)Man(a1-6)]Man(b1-4)GlcNAc(b1-4)GlcNAc
# Procedure, shortened: as §1
# [6] = biological target: GlcNAc(b1-2)Man(a1-3)[GlcNAc(b1-4)][GlcNAc(b1-2)Man(a1-6)]Man(b1-4)GlcNAc(b1-4)[Fuc(a1-6)]GlcNAc
# Procedure, shortened: as §1
# [7] = biological target: GlcNAc(b1-2)[GlcNAc(b1-4)]Man(a1-3)[GlcNAc(b1-2)Man(a1-6)]Man(b1-4)GlcNAc(b1-4)GlcNAc
# Procedure, shortened: as §1
# [8] = biological target: GlcNAc(b1-2)[GlcNAc(b1-4)]Man(a1-3)[GlcNAc(b1-4)][GlcNAc(b1-2)Man(a1-6)]Man(b1-4)GlcNAc(b1-4)GlcNAc
# Procedure, shortened: as §1
# [9] = biological target: GlcNAc(b1-2)[GlcNAc(b1-4)]Man(a1-3)[GlcNAc(b1-4)][GlcNAc(b1-2)[GlcNAc(b1-6)]Man(a1-6)]Man(b1-4)GlcNAc(b1-4)GlcNAc
# Procedure, shortened: as §1
# [10] = biological target: GlcNAc(b1-2)[GlcNAc(b1-4)]Man(a1-3)[GlcNAc(b1-4)][GlcNAc(b1-2)[GlcNAc(b1-6)]Man(a1-6)]Man(b1-4)GlcNAc(b1-4)[Fuc(a1-6)]GlcNAc
# Procedure, shortened: as §1
# [11] = biological target: GlcNAc(b1-2)[GlcNAc(b1-6)]Man(a1-6)[GlcNAc(b1-2)Man(a1-3)]Man(b1-4)GlcNAc(b1-4)GlcNAc
# Procedure, shortened: as §1
# [12] = biological target: GlcNAc(b1-2)[GlcNAc(b1-6)]Man(a1-6)[GlcNAc(b1-2)Man(a1-3)]Man(b1-4)GlcNAc(b1-4)[Fuc(a1-6)]GlcNAc
# Procedure, shortened: as §1
# [13] = biological target: GlcNAc(b1-2)[GlcNAc(b1-6)]Man(a1-6)[GlcNAc(b1-4)][GlcNAc(b1-2)Man(a1-3)]Man(b1-4)GlcNAc(b1-4)GlcNAc
# Procedure, shortened: as §1
# GlcNAc(b1-3)Fuc = biological target: GlcNAc(b1-3)Fuc
# Procedure, shortened: as §1
# GlcNAc(b1-3)Gal = biological target: GlcNAc(b1-3)Gal
# Procedure, shortened: as §1
# [14] = biological target: GlcNAc(b1-3)Gal(b1-3)GalNAc
# Procedure, shortened: as §1
# GlcNAc(b1-3)Gal(b1-4)Glc = biological target: GlcNAc(b1-3)Gal(b1-4)Glc
# Procedure, shortened: as §1
# [15] = biological target: GlcNAc(b1-3)Gal(b1-4)GlcNAc
# Procedure, shortened: as §1
# [16] = biological target: GlcNAc(b1-3)Gal(b1-4)GlcNAc(b1-2)Man(a1-3)[GlcNAc(b1-3)Gal(b1-4)GlcNAc(b1-2)Man(a1-6)]Man(b1-4)GlcNAc(b1-4)GlcNAc
# Procedure, shortened: as §1
# [17] = biological target: GlcNAc(b1-3)Gal(b1-4)GlcNAc(b1-2)Man(a1-3)[GlcNAc(b1-3)Gal(b1-4)GlcNAc(b1-2)Man(a1-6)]Man(b1-4)GlcNAc(b1-4)[Fuc(a1-6)]GlcNAc
# Procedure, shortened: as §1
# [18] = biological target: GlcNAc(b1-3)Gal(b1-4)GlcNAc(b1-2)[GlcNAc(b1-3)Gal(b1-4)GlcNAc(b1-6)]Man(a1-6)[GlcNAc(b1-3)Gal(b1-4)GlcNAc(b1-2)Man(a1-3)]Man(b1-4)GlcNAc(b1-4)GlcNAc
# Procedure, shortened: as §1
# [19] = biological target: GlcNAc(b1-3)Gal(b1-4)GlcNAc(b1-3)Gal(b1-4)GlcNAc
# Procedure, shortened: as §1
# [20] = biological target: GlcNAc(b1-3)Gal(b1-4)GlcNAc(b1-3)Gal(b1-4)GlcNAc(b1-2)Man(a1-3)[GlcNAc(b1-3)Gal(b1-4)GlcNAc(b1-3)Gal(b1-4)GlcNAc(b1-2)Man(a1-6)]Man(b1-4)GlcNAc(b1-4)GlcNAc
# Procedure, shortened: as §1
# [21] = biological target: GlcNAc(b1-3)Gal(b1-4)GlcNAc(b1-3)Gal(b1-4)GlcNAc(b1-2)Man(a1-3)[GlcNAc(b1-3)Gal(b1-4)GlcNAc(b1-3)Gal(b1-4)GlcNAc(b1-2)Man(a1-6)]Man(b1-4)GlcNAc(b1-4)[Fuc(a1-6)]GlcNAc
# Procedure, shortened: as §1
# [22] = biological target: GlcNAc(b1-3)Gal(b1-4)GlcNAc(b1-3)Gal(b1-4)GlcNAc(b1-2)[GlcNAc(b1-3)Gal(b1-4)GlcNAc(b1-3)Gal(b1-4)GlcNAc(b1-6)]Man(a1-6)[GlcNAc(b1-3)Gal(b1-4)GlcNAc(b1-3)Gal(b1-4)GlcNAc(b1-2)Man(a1-3)]Man(b1-4)GlcNAc(b1-4)[Fuc(a1-6)]GlcNAc
# Procedure, shortened: as §1
# [23] = biological target: GlcNAc(b1-3)Gal(b1-4)GlcNAc(b1-3)Gal(b1-4)GlcNAc(b1-3)Gal(b1-4)GlcNAc(b1-2)Man(a1-3)[GlcNAc(b1-3)Gal(b1-4)GlcNAc(b1-3)Gal(b1-4)GlcNAc(b1-3)Gal(b1-4)GlcNAc(b1-2)Man(a1-6)]Man(b1-4)GlcNAc(b1-4)GlcNAc
# Procedure, shortened: as §1
# [24] = biological target: GlcNAc(b1-3)Gal(b1-4)GlcNAc(b1-3)Gal(b1-4)GlcNAc(b1-3)Gal(b1-4)GlcNAc(b1-2)Man(a1-3)[GlcNAc(b1-3)Gal(b1-4)GlcNAc(b1-3)Gal(b1-4)GlcNAc(b1-3)Gal(b1-4)GlcNAc(b1-2)Man(a1-6)]Man(b1-4)GlcNAc(b1-4)[Fuc(a1-6)]GlcNAc
# Procedure, shortened: as §1
# [25] = biological target: GlcNAc(b1-3)Gal(b1-4)GlcNAc(b1-3)Gal(b1-4)GlcNAc(b1-3)Gal(b1-4)GlcNAc(b1-2)[GlcNAc(b1-3)Gal(b1-4)GlcNAc(b1-3)Gal(b1-4)GlcNAc(b1-3)Gal(b1-4)GlcNAc(b1-6)]Man(a1-6)[GlcNAc(b1-3)Gal(b1-4)GlcNAc(b1-3)Gal(b1-4)GlcNAc(b1-3)Gal(b1-4)GlcNAc(b1-2)Man(a1-3)]Man(b1-4)GlcNAc(b1-4)[Fuc(a1-6)]GlcNAc
# Procedure, shortened: as §1
# [26] = biological target: GlcNAc(b1-3)Gal(b1-4)GlcNAc(b1-3)Gal(b1-4)GlcNAc(b1-3)Gal(b1-4)GlcNAc(b1-3)Gal(b1-4)GlcNAc(b1-2)Man(a1-3)[GlcNAc(b1-3)Gal(b1-4)GlcNAc(b1-3)Gal(b1-4)GlcNAc(b1-3)Gal(b1-4)GlcNAc(b1-3)Gal(b1-4)GlcNAc(b1-2)Man(a1-6)]Man(b1-4)GlcNAc(b1-4)GlcNAc
# Procedure, shortened: as §1
# [27] = biological target: GlcNAc(b1-3)Gal(b1-4)GlcNAc(b1-3)Gal(b1-4)GlcNAc(b1-3)Gal(b1-4)GlcNAc(b1-3)Gal(b1-4)GlcNAc(b1-2)Man(a1-3)[GlcNAc(b1-3)Gal(b1-4)GlcNAc(b1-3)Gal(b1-4)GlcNAc(b1-3)Gal(b1-4)GlcNAc(b1-3)Gal(b1-4)GlcNAc(b1-2)Man(a1-6)]Man(b1-4)GlcNAc(b1-4)[Fuc(a1-6)]GlcNAc
# Procedure, shortened: as §1
# [28] = biological target: GlcNAc(b1-3)Gal(b1-4)GlcNAc(b1-3)Gal(b1-4)GlcNAc(b1-3)Gal(b1-4)GlcNAc(b1-3)Gal(b1-4)GlcNAc(b1-2)[GlcNAc(b1-3)Gal(b1-4)GlcNAc(b1-3)Gal(b1-4)GlcNAc(b1-3)Gal(b1-4)GlcNAc(b1-3)Gal(b1-4)GlcNAc(b1-6)]Man(a1-6)[GlcNAc(b1-3)Gal(b1-4)GlcNAc(b1-3)Gal(b1-4)GlcNAc(b1-3)Gal(b1-4)GlcNAc(b1-3)Gal(b1-4)GlcNAc(b1-2)Man(a1-3)]Man(b1-4)GlcNAc(b1-4)[Fuc(a1-6)]GlcNAc
# Procedure, shortened: as §1
# [29] = biological target: GlcNAc(b1-3)Gal(b1-4)GlcNAc(b1-3)Gal(b1-4)GlcNAc(b1-3)GalNAc
# Procedure, shortened: as §1
# [30] = biological target: GlcNAc(b1-3)Gal(b1-4)GlcNAc(b1-3)GalNAc
# Procedure, shortened: as §1
# [31] = biological target: GlcNAc(b1-3)Gal(b1-4)GlcNAc(b1-3)[GlcNAc(b1-3)Gal(b1-4)GlcNAc(b1-3)]GalNAc
# Procedure, shortened: as §1
# [32] = biological target: GlcNAc(b1-3)Gal(b1-4)GlcNAc(b1-6)[Gal(b1-3)]GalNAc
# Procedure, shortened: as §1
# [33] = biological target: GlcNAc(b1-3)Gal(b1-4)GlcNAc(b1-6)[GlcNAc(b1-3)Gal(b1-3)]GalNAc
# Procedure, shortened: as §1
# [34] = biological target: GlcNAc(b1-3)Gal(b1-4)GlcNAc(b1-6)[GlcNAc(b1-3)]Gal(b1-4)GlcNAc
# Procedure, shortened: as §1
binder,measurement,setting,value
B1,glycan array binding signal (z-score),[1],-0.09
same,glycan array binding signal (z-score),[2],-1.1
same,glycan array binding signal (z-score),[3],-0.045
same,glycan array binding signal (z-score),[4],-0.833
same,glycan array binding signal (z-score),[5],0.666
same,glycan array binding signal (z-score),[6],0.755
same,glycan array binding signal (z-score),[7],0.184
same,glycan array binding signal (z-score),[8],0.958
same,glycan array binding signal (z-score),[9],0.735
same,glycan array binding signal (z-score),[10],-0.115
same,glycan array binding signal (z-score),[11],-0.369
same,glycan array binding signal (z-score),[12],2.54
same,glycan array binding signal (z-score),[13],-1.18
same,glycan array binding signal (z-score),GlcNAc(b1-3)Fuc,-0.451
same,glycan array binding signal (z-score),GlcNAc(b1-3)Gal,-1.28
same,glycan array binding signal (z-score),[14],-0.311
same,glycan array binding signal (z-score),GlcNAc(b1-3)Gal(b1-4)Glc,0.27
same,glycan array binding signal (z-score),[15],-0.485
same,glycan array binding signal (z-score),[16],-0.627
same,glycan array binding signal (z-score),[17],-0.092
same,glycan array binding signal (z-score),[18],1.35
same,glycan array binding signal (z-score),[19],0.405
same,glycan array binding signal (z-score),[20],-0.497
same,glycan array binding signal (z-score),[21],0.822
same,glycan array binding signal (z-score),[22],0.713
same,glycan array binding signal (z-score),[23],0.249
same,glycan array binding signal (z-score),[24],0.75
same,glycan array binding signal (z-score),[25],1.44
same,glycan array binding signal (z-score),[26],1.01
same,glycan array binding signal (z-score),[27],-0.195
same,glycan array binding signal (z-score),[28],0.449
same,glycan array binding signal (z-score),[29],-0.343
same,glycan array binding signal (z-score),[30],0.009
same,glycan array binding signal (z-score),[31],1.21
same,glycan array binding signal (z-score),[32],-0.759
same,glycan array binding signal (z-score),[33],0.161
same,glycan array binding signal (z-score),[34],-0.217

# Exported with tabs: entries from further up
binder	measurement	setting	value
B1	glycan array binding signal (z-score)	[15]	-0.485
same	glycan array binding signal (z-score)	[16]	-0.627
